Results reported in the supplement of paper PMC6078165.
± gives the standard deviation of the averaged measurements. The reference is the same well before dosing, and untreated signal decays as well.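 Fibroblast labels denote human fibroblasts, mainly primary ones from uterus (C12385, HUF), lung (H6013), bone (Hs27A), adrenal (HADF) and skin (WS1), plus mammary HMF and breast cancer-associated Hs343T. Cancer cells are basal-like or mesenchymal-like triple-negative breast cancer lines. A hit is a response shift exceeding 3x replicate standard deviation. The tissue of the other fibroblasts is not given here.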

System: MDAMB231
Experiment: relative JC-1 red fluorescence (viability) vs pre-drug, coculture with fibroblast (fraction); higher = more viable cancer cells
Conditions: 10 µM
Experimental: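 JC-1 labelled TNBC cells cocultured 1:1 (1,500 cells each) with CellTrace Violet stained primary or stromal fibroblasts in 384-well plates in FluoroBrite medium, treated with one of 42 anticancer drugs at 0.1, 1, 10 or 100 uM. JC-1 red fluorescence (mitochondrial integrity in cancer cells only) was read by plate reader every 8 h for 72 h. Values are normalised to each well's pre-drug value. The stock of one drug was tenfold lower, so its dose labels may be too high.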

O=NN(CCCl)C(=O)NCCCl [Carmustine]
relative JC-1 red fluorescence
Conditions | 40 h | 48 h | 56 h | 64 h | 72 h
coculture fibroblast: C12385 | – | 0.472 ± 0.027 | 0.424 ± 0.032 | 0.416 ± 0.028 | 0.391 ± 0.026
coculture fibroblast: H6013 | – | 0.7075 ± 0.00072 | 0.6885 ± 0.0064 | 0.6687 ± 0.0013 | 0.6368 ± 0.0015
coculture fibroblast: H6019 | – | 0.559 ± 0.047 | 0.496 ± 0.061 | 0.459 ± 0.055 | 0.404 ± 0.059
coculture fibroblast: H6076 | – | 0.61 ± 0.0086 | 0.5798 ± 0.0019 | 0.564 ± 0.009 | 0.553 ± 0.01
coculture fibroblast: H6231 | – | 0.637 ± 0.026 | 0.59 ± 0.023 | 0.564 ± 0.019 | 0.531 ± 0.027
coculture fibroblast: HADF | – | 0.746 ± 0.056 | 0.737 ± 0.059 | 0.714 ± 0.064 | 0.667 ± 0.058
coculture fibroblast: HCFa | – | 0.6529 ± 0.0014 | 0.609 ± 0.0075 | 0.5679 ± 0.0049 | 0.5301 ± 0.0051
coculture fibroblast: HCPF | – | 0.635 ± 0.016 | 0.591 ± 0.011 | 0.558 ± 0.0067 | 0.536 ± 0.011
coculture fibroblast: HHSteC | 0.7123 ± 0.0033 | 0.693 ± 0.0034 | 0.638 ± 0.0089 | 0.613 ± 0.013 | 0.575 ± 0.016
coculture fibroblast: HMF | 0.622 ± 0.015 | 0.58 ± 0.014 | 0.533 ± 0.02 | 0.507 ± 0.019 | 0.483 ± 0.015
coculture fibroblast: HPFa | 0.669 ± 0.036 | 0.616 ± 0.043 | 0.554 ± 0.032 | 0.511 ± 0.029 | 0.45 ± 0.03
coculture fibroblast: HUF | 0.51 ± 0.032 | 0.48 ± 0.019 | 0.419 ± 0.016 | 0.408 ± 0.021 | 0.387 ± 0.026
coculture fibroblast: Hs5 | 0.608 ± 0.041 | 0.55 ± 0.041 | 0.498 ± 0.03 | 0.467 ± 0.031 | 0.432 ± 0.025
coculture fibroblast: Hs27A | 0.804 ± 0.06 | 0.739 ± 0.043 | 0.766 ± 0.028 | 0.741 ± 0.018 | 0.7 ± 0.019
coculture fibroblast: Hs343T | 0.592 ± 0.059 | 0.533 ± 0.07 | 0.467 ± 0.068 | 0.439 ± 0.065 | 0.412 ± 0.065
coculture fibroblast: WS1 | 0.523 ± 0.012 | 0.492 ± 0.018 | 0.445 ± 0.018 | 0.425 ± 0.012 | 0.397 ± 0.012
